These results are taken from paper PMC7819943, “Rice protein-binding microarrays: a tool to detect cis-acting elements near promoter regions in rice”.

This is one part of the list.

For this assay, the target named is T1, OsSMF1 (Oryza sativa, UniProt Q6ZLB0 1-436).
T1 sequence: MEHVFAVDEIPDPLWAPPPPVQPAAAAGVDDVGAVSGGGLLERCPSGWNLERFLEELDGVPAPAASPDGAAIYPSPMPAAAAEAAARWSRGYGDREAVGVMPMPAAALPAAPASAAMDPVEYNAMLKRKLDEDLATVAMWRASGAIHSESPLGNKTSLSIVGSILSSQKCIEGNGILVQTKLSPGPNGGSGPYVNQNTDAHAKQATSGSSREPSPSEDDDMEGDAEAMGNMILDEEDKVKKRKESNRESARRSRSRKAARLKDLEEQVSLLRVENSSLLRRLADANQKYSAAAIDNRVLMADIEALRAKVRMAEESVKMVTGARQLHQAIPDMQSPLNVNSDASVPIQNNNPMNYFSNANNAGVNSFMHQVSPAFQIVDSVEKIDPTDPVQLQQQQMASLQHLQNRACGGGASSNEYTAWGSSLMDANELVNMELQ
The experiment in a line: protein-binding microarray (RPBM); PBS, 2% BSA, 51.3 ng/ul salmon testes DNA, 50 uM zinc acetate, 200 nM TF, 25 C, 1 h; high values mean tight binding. Conditions: protein: recombinant; tags: N-terminal polyhistidine and DsRed monomer fusion (pET32a); chain copies: 2; label: CyDye5-dUTP incorporated in the synthesized complementary strand; 3' TTTTT single-stranded linker to array surface; dsDNA, one strand shown. The procedure, abridged: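 The binding signal for each feature is its fluorescence intensity in arbitrary units. An Axon 4000B scanner was used to read a custom Agilent array that had been made double-stranded with Cy5-dUTP primer extension, blocked with 2% BSA, incubated at 25 °C for 1 h with 200 nM protein in PBS, 2% BSA, salmon testes DNA and 50 µM zinc acetate, and washed. The protein was an N-terminal polyhistidine–DsRed transcription factor fusion from E. coli BL21-CodonPlus, purified on Ni–NTA.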
For “GTCGATGGCCACGATTGGCTATTTCTAGTGGCCTATGGGGCGGAGTCACCTAGTGCAG”, the binding signal was 3930 fluorescence intensity (a.u.).

With “GGCCAGCCGTGTAGGCGGAGGCACCACTCGGCGGCGACGGCGGAGTCACCTAGTGCAG”, the binding signal is 49900 fluorescence intensity (a.u.).

Take “GCACCACAGCCACATCCTTATGATCATTGGCAGGGTGTTCCGGAGTCACCTAGTGCAG”: the binding signal is 3220 fluorescence intensity (a.u.).

Turning to “GCGAGCTGTATGTACGTCATACGGCAGCAGCAATTCACGCCGGAGTCACCTAGTGCAG”, the binding signal is 8200 fluorescence intensity (a.u.).

Take “GAAAGAAACTCCTAACCTTTCTTGTCGACGCAGTGGTCGTCGGAGTCACCTAGTGCAG”: the binding signal was 3550 fluorescence intensity (a.u.).

With “ACTCCGGTTTTATCCGACGTGGCAGCTGACTCAGCATGGGCGGAGTCACCTAGTGCAG”, the binding signal was 44300 fluorescence intensity (a.u.).

With “AATAAGTAGTTGGTGATACGTGTTAGCCACGAGGCATATACGGAGTCACCTAGTGCAG”, the binding signal is 4020 fluorescence intensity (a.u.).

As to “TGTTTATTGGCTTTGTCATATGATAAATGAATTAATTGTTCGGAGTCACCTAGTGCAG”, the binding signal is 30500 fluorescence intensity (a.u.).

For the sequence “GATATATGACACAAGAAAATCGTGGCAATTTAGAATTGGACGGAGTCACCTAGTGCAG”, the binding signal was 3500 fluorescence intensity (a.u.).

Turning to “TATCCTCTCCTTGGCCACCGCGCCGCCACATCAGCCTCCCCGGAGTCACCTAGTGCAG”, the binding signal was 6980 fluorescence intensity (a.u.).

As for “GTGCTTATCTTCCACTTCCATGGATGTCAAATGTGCGTCACGGAGTCACCTAGTGCAG”, the binding signal was 4260 fluorescence intensity (a.u.).

For “CGGCCCAGCAGGCGAGCGTGACGTGGACCGGTCGTTTCGCCGGAGTCACCTAGTGCAG”, the binding signal is 5650 fluorescence intensity (a.u.).

Turning to “AGGGAGGTTGGATTGTGTTGGTCGTGTCGAGTTGGTCTGTCGGAGTCACCTAGTGCAG”, the binding signal is 4520 fluorescence intensity (a.u.).

Turning to “TGGATATACATATGCCATGTCGATTTTGTGCCGAAGTGGACGGAGTCACCTAGTGCAG”, the binding signal was 3330 fluorescence intensity (a.u.).

For the sequence “GTATGCTTGTTGTACACAGTAATTCTGTCTCATGTAGCCTCGGAGTCACCTAGTGCAG”, the binding signal is 3420 fluorescence intensity (a.u.).

With “TAGGGAAAGCAGCCGATGGGCACCGTTGGATCGGGACTGTCGGAGTCACCTAGTGCAG”, the binding signal was 29900 fluorescence intensity (a.u.).

In the case of “TTGTTTATCTGAATTTACTGGAGATACTATGGGATGGAATCGGAGTCACCTAGTGCAG”, the binding signal was 3890 fluorescence intensity (a.u.).

Consider “GAACTTATTCCTATCCTACCCACCCAACCCAACCAAGGCGCGGAGTCACCTAGTGCAG”, for which the binding signal was 11900 fluorescence intensity (a.u.).

Take “TACCTAATGGCATTGTCCGTCAGCATTTCCAGTGCGTCCACGGAGTCACCTAGTGCAG”: the binding signal is 3440 fluorescence intensity (a.u.).

For the sequence “ACTCGCCATGACGTATTGCCGTATGCGTACATATCTACATCGGAGTCACCTAGTGCAG”, the binding signal was 5600 fluorescence intensity (a.u.).

For the sequence “TTCTCTCTCTCTCCTCTCGATGACGAGTCAACACGTGGGCCGGAGTCACCTAGTGCAG”, the binding signal is 7790 fluorescence intensity (a.u.).

With “GCGATGACACAATCAAACAAGTTTGAGAACCTGAACGGTCCGGAGTCACCTAGTGCAG”, the binding signal is 3510 fluorescence intensity (a.u.).

Turning to “CAATGGTATGGTCAAACATACTGCAGAAATCAATGGGGCGCGGAGTCACCTAGTGCAG”, the binding signal is 4210 fluorescence intensity (a.u.).

As to “AGACTAATCTATACACGTAGTCACTATATTTGAATGAAAACGGAGTCACCTAGTGCAG”, the binding signal was 3540 fluorescence intensity (a.u.).

With “CAAATAATTATTATACTTTGTCATGTCATATAAACTATATCGGAGTCACCTAGTGCAG”, the binding signal is 3430 fluorescence intensity (a.u.).

“CCACGCCACAGCGCGAACTCGCTTACGTGCCCTTCTCCACCGGAGTCACCTAGTGCAG”: the binding signal is 5840 fluorescence intensity (a.u.).

Consider “CGAATTTGCTACCCCATTTCACAAATCAAAAGTGCAAAGCCGGAGTCACCTAGTGCAG”, for which the binding signal is 29200 fluorescence intensity (a.u.).

As to “AGCCGCCTCAACCTCCTCGCGCTTTCTCCGCACAACCCGTCGGAGTCACCTAGTGCAG”, the binding signal is 18000 fluorescence intensity (a.u.).

On to “GCACAATTCGCTTCCCAGTCACCTTCCAAATACTCTGGATCGGAGTCACCTAGTGCAG”, for which the binding signal was 3860 fluorescence intensity (a.u.).

Regarding “TCATACAGGGTGTTGGGAGGGAGATGACACTGGCTTGGGTCGGAGTCACCTAGTGCAG”, the binding signal was 3200 fluorescence intensity (a.u.).

For “GTGGGATCATTGGTGGATGGTGATGATGATGATGGTCACACGGAGTCACCTAGTGCAG”, the binding signal is 4140 fluorescence intensity (a.u.).

As for “AGTGAGTGCATGACAGGGAAGAAGATAGGAGAAGGCGGAGCGGAGTCACCTAGTGCAG”, the binding signal is 3540 fluorescence intensity (a.u.).

“GTCCCCTTTCCTCTCGCCGCCGACCTCGTCGGCCGTCTCCCGGAGTCACCTAGTGCAG”: the binding signal was 24600 fluorescence intensity (a.u.).

Take “GATTTGGTGATGTGATGTATTTGTGATCTGTGATGCATTTCGGAGTCACCTAGTGCAG”: the binding signal is 3450 fluorescence intensity (a.u.).

For “TGAGTGTTTGGTGCGTGTGGTTTCTTGGGAGATCATGTTACGGAGTCACCTAGTGCAG”, the binding signal is 10300 fluorescence intensity (a.u.).

As for “AAGCGATGGAAGCAGCAGACGTGTCGCACGGGAATTTGAGCGGAGTCACCTAGTGCAG”, the binding signal is 5240 fluorescence intensity (a.u.).

Regarding “AGGGAATAATCCCTTATATTATACAATGGAGGGAGTACATCGGAGTCACCTAGTGCAG”, the binding signal was 18900 fluorescence intensity (a.u.).

As for “GCCACTGCCAGGTGGGACCCACGACGACACCCTGCCACGTCGGAGTCACCTAGTGCAG”, the binding signal is 14200 fluorescence intensity (a.u.).

Consider “GGTCTTGGTTTCGTCAGCGCCATGGTGTTGTGTGACTTGTCGGAGTCACCTAGTGCAG”, for which the binding signal is 5510 fluorescence intensity (a.u.).

As for “CCCAAAATGCCCCACTACATGCGCCACGCCGCGCGCTTCCCGGAGTCACCTAGTGCAG”, the binding signal was 4050 fluorescence intensity (a.u.).

Regarding “AGCACCCACAATTATGCTTAGGTGGATAAACTGCTCGAATCGGAGTCACCTAGTGCAG”, the binding signal was 3690 fluorescence intensity (a.u.).

Turning to “CCCCTTGCTGAGCCACTGAATCAACTGCTACACCAGCAGCCGGAGTCACCTAGTGCAG”, the binding signal is 3460 fluorescence intensity (a.u.).
